Results are given in words; binding and its absence hold for the method and conditions named. Some binding calls cover weakened binding; strength is not graded here.
Target: T1, fragment of Rb (1.9 kb BsmHI-SalI fragment of Rb from pASRB2) cloned into pGBT9 (UniProt P06400)
T1 sequence (looked up): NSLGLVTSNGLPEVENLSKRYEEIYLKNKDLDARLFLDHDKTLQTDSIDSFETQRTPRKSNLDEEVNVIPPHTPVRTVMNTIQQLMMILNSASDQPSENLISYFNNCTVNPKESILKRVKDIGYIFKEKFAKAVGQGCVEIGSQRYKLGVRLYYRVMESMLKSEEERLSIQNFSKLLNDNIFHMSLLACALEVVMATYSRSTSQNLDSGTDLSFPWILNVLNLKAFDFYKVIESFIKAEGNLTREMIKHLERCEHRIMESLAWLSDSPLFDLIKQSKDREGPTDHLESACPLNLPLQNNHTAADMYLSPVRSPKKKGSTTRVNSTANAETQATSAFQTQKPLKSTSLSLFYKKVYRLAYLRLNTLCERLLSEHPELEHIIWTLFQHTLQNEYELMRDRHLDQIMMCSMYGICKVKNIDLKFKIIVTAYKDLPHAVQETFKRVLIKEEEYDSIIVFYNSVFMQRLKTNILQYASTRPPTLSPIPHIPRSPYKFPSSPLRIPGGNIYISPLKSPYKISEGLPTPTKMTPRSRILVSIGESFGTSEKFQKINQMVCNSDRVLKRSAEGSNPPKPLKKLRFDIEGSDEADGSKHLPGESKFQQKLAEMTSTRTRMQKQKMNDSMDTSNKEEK
Assay: yeast two-hybrid (GAL4), positive control

Amino acid sequences for entries named in this document (tags omitted). Residues count along the entry.
UniProt P03070, residues 84-708: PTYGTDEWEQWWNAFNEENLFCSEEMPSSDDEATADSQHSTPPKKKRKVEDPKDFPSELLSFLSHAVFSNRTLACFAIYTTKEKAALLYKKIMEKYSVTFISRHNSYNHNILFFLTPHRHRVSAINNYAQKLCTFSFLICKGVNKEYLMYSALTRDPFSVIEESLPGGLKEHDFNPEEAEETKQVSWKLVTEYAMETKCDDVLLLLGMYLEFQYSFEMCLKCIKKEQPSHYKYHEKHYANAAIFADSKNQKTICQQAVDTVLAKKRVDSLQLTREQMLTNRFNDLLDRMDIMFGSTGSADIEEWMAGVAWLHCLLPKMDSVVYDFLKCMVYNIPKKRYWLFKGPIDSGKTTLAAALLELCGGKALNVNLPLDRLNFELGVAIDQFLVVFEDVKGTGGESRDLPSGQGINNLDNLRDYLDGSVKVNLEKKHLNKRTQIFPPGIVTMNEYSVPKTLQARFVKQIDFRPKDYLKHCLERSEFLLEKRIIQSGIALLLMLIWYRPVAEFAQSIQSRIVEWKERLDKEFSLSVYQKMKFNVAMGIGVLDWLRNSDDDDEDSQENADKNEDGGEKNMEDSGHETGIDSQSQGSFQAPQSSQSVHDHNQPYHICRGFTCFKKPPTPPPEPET

## SV40 large T antigen (pTD1) (from UniProt P03070 84-708)
  binding: binds
